In paper PMC10057503:
No constants are given. Whether binding was seen depends on the method and setting. Binding can be weak; no strength is given. Sequences can lack the tags named with a protein. For some assays here: Binding seen in cells or lysates may run through a third protein.

Sequences of proteins named here, by UniProt entry; tags and fusion partners are left off. A change or cut given only in a name is not applied to a line headed by its entry.
UniProt Q0E476: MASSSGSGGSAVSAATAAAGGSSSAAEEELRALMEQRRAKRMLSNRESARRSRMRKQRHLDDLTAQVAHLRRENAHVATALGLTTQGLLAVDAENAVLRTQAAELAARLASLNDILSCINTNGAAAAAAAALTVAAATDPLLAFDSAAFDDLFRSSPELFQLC

Tests used:
[1] = molecular target: OsbZIP14 (BiFC fusion from pRTVnVC-OsbZIP14) (rice (Nipponbare cDNA)) (UniProt Q0E476); experiment: split reporter; BiFC in rice protoplasts co-transformed with pRTVnVC-OsbZIP14 and pRTVnVN-OsbZIP58; confocal microscopy after 9 h culture; controls with the corresponding empty plasmids
[2] = molecular target: OsbZIP14 (yeast two-hybrid bait from PGBKT7-OsbZIP14) (rice (Nipponbare cDNA)) (UniProt Q0E476); experiment: two-hybrid; pairwise Y2H of OsbZIP14 and OsbZIP58, named only in the discussion; no details given

Binder	binding [1]	binding [2]
OsbZIP58 (BiFC fusion from pRTVnVN-OsbZIP58) (protein, UniProt Q6ZLB0 1-436) MEHVFAVDEIPDPLWAPPPPVQPAAAAGVDDVGAVSGGGLLERCPSGWNLERFLEELDGVPAPAASPDGAAIYPSPMPAAAAEAAARWSRGYGDREAVGVMPMPAAALPAAPASAAMDPVEYNAMLKRKLDEDLATVAMWRASGAIHSESPLGNKTSLSIVGSILSSQKCIEGNGILVQTKLSPGPNGGSGPYVNQNTDAHAKQATSGSSREPSPSEDDDMEGDAEAMGNMILDEEDKVKKRKESNRESARRSRSRKAARLKDLEEQVSLLRVENSSLLRRLADANQKYSAAAIDNRVLMADIEALRAKVRMAEESVKMVTGARQLHQAIPDMQSPLNVNSDASVPIQNNNPMNYFSNANNAGVNSFMHQVSPAFQIVDSVEKIDPTDPVQLQQQQMASLQHLQNRACGGGASSNEYTAWGSSLMDANELVNMELQ	binds	–
OsbZIP58 (pairwise yeast two-hybrid fusion) (protein, UniProt Q6ZLB0 1-436) MEHVFAVDEIPDPLWAPPPPVQPAAAAGVDDVGAVSGGGLLERCPSGWNLERFLEELDGVPAPAASPDGAAIYPSPMPAAAAEAAARWSRGYGDREAVGVMPMPAAALPAAPASAAMDPVEYNAMLKRKLDEDLATVAMWRASGAIHSESPLGNKTSLSIVGSILSSQKCIEGNGILVQTKLSPGPNGGSGPYVNQNTDAHAKQATSGSSREPSPSEDDDMEGDAEAMGNMILDEEDKVKKRKESNRESARRSRSRKAARLKDLEEQVSLLRVENSSLLRRLADANQKYSAAAIDNRVLMADIEALRAKVRMAEESVKMVTGARQLHQAIPDMQSPLNVNSDASVPIQNNNPMNYFSNANNAGVNSFMHQVSPAFQIVDSVEKIDPTDPVQLQQQQMASLQHLQNRACGGGASSNEYTAWGSSLMDANELVNMELQ	–	binds
